Laboratory results reported in patent US7067145B2, “Use of arachidonic acid for enhanced culturing of fish larvae and broodstock” (University of Maryland Biotechnology Institute, priority 2000, dated 2006).

Columns and labels:
[1] = system: white bass larvae brain/eye, muscle and gill tissues; test: Fatty acid composition of white bass larval tissues after dietary treatment; format: in vivo, Morone chrysops
[2] = system: Artemia nauplii; test: Enrichment of Artemia nauplii with DHA:AA diets, lipid and fatty acid composition; format: in vivo
[3] = system: striped bass larva gill tissue; test: AA/EPA ratio in larval gill tissue lipids; format: in vivo, Morone saxatilis

SMILES: CCCCC/C=C\C/C=C\C/C=C\C/C=C\CCCC(=O)O [AA, arachidonic acid]
- DHA in larval brain/eye tissue ([1]; DHA-deficient diets, highest content of dietary AA): 7.5±1.2 mg DHA/g dry weight
- Dietary content at maximum accumulation rate of AA in gills ([1]; in vivo): about 2 mg/g
- AA retention by the Artemia ([2]; 16 h enrichment): 25.3 mg AA/g dry weight
- Reduction of maximal retention by Artemia ([2]; in the presence of increasing dietary levels of the competing fatty acid (AA vs DHA)): 25%
- AA over EPA accumulated in gills (times) ([3]; Artemia enriched with 14.5 mg AA g^−1 lipids): 4 times
- AA over EPA accumulated in gills (times) ([3]; Artemia enriched with 24.8 mg AA g^−1 lipids): 6 times
